The values that follow come from PMC12866778.

By UniProt entry, the sequences of proteins in these tests, tags left out.
UniProt Q9Z127: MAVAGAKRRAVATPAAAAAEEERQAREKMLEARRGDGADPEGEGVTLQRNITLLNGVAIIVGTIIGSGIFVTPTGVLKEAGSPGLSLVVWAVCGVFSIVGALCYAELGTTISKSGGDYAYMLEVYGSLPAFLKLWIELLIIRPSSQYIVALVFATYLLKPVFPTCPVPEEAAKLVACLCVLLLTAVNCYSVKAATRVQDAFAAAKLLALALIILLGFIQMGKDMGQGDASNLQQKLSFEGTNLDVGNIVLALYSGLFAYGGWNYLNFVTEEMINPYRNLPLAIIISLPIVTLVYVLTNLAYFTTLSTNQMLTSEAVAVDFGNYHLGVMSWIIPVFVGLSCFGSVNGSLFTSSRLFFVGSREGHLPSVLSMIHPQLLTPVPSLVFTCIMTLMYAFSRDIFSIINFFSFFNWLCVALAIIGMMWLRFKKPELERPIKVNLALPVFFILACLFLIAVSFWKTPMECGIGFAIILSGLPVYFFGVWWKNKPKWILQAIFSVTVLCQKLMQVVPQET

No constants are given. Whether binding was seen depends on the method and setting. Binding seen in cells or lysates may run through a third protein. Some results given as binding are weak or reduced against the parent protein; the word gives no strength. For some of these results: Sequences can lack the tags named with a protein.

For assay [1], the target named is T1, PGAM5-HA (full-length PGAM5, HA-tagged) in RAW264.7 cells (UniProt Q8BX10).
T1 sequence: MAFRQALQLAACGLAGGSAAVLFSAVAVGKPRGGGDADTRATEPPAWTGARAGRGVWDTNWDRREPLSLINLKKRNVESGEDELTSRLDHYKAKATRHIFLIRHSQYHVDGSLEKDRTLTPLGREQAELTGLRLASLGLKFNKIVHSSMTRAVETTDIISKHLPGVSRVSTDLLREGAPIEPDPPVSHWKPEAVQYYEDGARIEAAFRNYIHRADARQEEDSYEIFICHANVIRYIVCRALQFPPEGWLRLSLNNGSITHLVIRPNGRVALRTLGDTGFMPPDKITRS
The assay can be described thus: co-IP; RAW264.7 whole-cell lysate incubated with primary antibody (anti-FLAG or anti-HA) overnight at 4 °C, protein A/G magnetic beads 6 h, irrelevant IgG as control, western blot; for PGAM5-HA and NDUFV1 also cells with SLC7A5 knock-down.

The target in assay [2] is SLC7A5-FLAG (solute carrier family seven member 5/L-type amino acid transporter 1, FLAG-tagged) (UniProt Q9Z127). The assay is described as above.
Assay [3] shares this target. The assay can be described thus: proximity ligation; Duolink PLA on fixed, permeabilised RAW264.7 cells transfected with SLC7A5-FLAG and PGAM5-HA (antibodies to FLAG and HA); also co-stained with MitoTracker; also under leucine deficiency by the text.
Assay [4] shares this target. Kind of assay: co-IP; anti-FLAG co-IP from cytosol and mitochondrial fractions of RAW264.7 cells (Mitochondria Isolation Kit), blot for HA and FLAG.

Regarding “SLC7A5-FLAG (solute carrier family seven member 5/L-type amino acid transporter 1, FLAG-tagged) (from UniProt Q9Z127 1-512)”, in assay [1], the binding entry is “binds”.

B1: endogenous PGAM5 (phosphoglycerate mutase 5) of RAW264.7 cells (protein, UniProt Q8BX10 1-288)
chain: MAFRQALQLAACGLAGGSAAVLFSAVAVGKPRGGGDADTRATEPPAWTGARAGRGVWDTNWDRREPLSLINLKKRNVESGEDELTSRLDHYKAKATRHIFLIRHSQYHVDGSLEKDRTLTPLGREQAELTGLRLASLGLKFNKIVHSSMTRAVETTDIISKHLPGVSRVSTDLLREGAPIEPDPPVSHWKPEAVQYYEDGARIEAAFRNYIHRADARQEEDSYEIFICHANVIRYIVCRALQFPPEGWLRLSLNNGSITHLVIRPNGRVALRTLGDTGFMPPDKITRS
Take B1: the binding entry in assay [2] is on record as “binds”.

B2: PGAM5-HA (full-length PGAM5, HA-tagged) in RAW264.7 cells (protein, UniProt Q8BX10 1-288)
chain: MAFRQALQLAACGLAGGSAAVLFSAVAVGKPRGGGDADTRATEPPAWTGARAGRGVWDTNWDRREPLSLINLKKRNVESGEDELTSRLDHYKAKATRHIFLIRHSQYHVDGSLEKDRTLTPLGREQAELTGLRLASLGLKFNKIVHSSMTRAVETTDIISKHLPGVSRVSTDLLREGAPIEPDPPVSHWKPEAVQYYEDGARIEAAFRNYIHRADARQEEDSYEIFICHANVIRYIVCRALQFPPEGWLRLSLNNGSITHLVIRPNGRVALRTLGDTGFMPPDKITRS
For B2, the binding result in assay [3] and in assay [4] was “binds” in each case.
